In PubChem BioAssay AID330 (DTP/NCI, 2004) one finds survivor count and T/C data, which are given here for 15 compounds.

The list does not hold the whole screen: it gathers tests that were run many times, whatever their T/C, doses with no T/C, and many T/C values between a quarter and a half above the control. Other doses and runs of a compound stand elsewhere. T/C: endpoint of the treated group in % of that of the vehicle group. Some entries give survivors of the animals treated and no T/C: the source holds a T/C of zero for them, seemingly a mark for toxic or unscored doses. Some survivor counts are full or nearly so, which does not show that the dose was tolerated: survival well below the control is almost never listed, so the zero probably covers shortened survival too. Counts of survivors are from the toxicity check (mostly the fifth day) where no day follows; animals may have died later. Schedules are NCI's codes, taken here to give the interval after Q, in days (D) or hours (H), and the number of doses after X. Some entries were tested several times; the results are listed from low to high. Brackets with × stand for listed records that agree. For survival time, this PubChem deposit counts one and a half times the control or more as active, and values a quarter to a half above the control carry no call in these data; other NCI protocols may use other cut-offs. Some T/C values carry the count of animals alive at the toxicity check (mostly the fifth day); without a count, all were alive then.

This test relates to P388 leukemia ip, CD2F1 mice, survival T/C. Kind of test: NCI In Vivo Anticancer Drug Screen. Data for tumor model P388 Leukemia (intraperitoneal) in CD2F1 (CDF1) mice. Particulars: T/C endpoint: median survival time, higher T/C = longer survival.
The mark [1] stands for this setting: dose: 100.0 mg/kg/injection, schedule: Q01DX009 (ip), vehicle: saline with Tween-80.
[2] abbreviates: dose: 200.0 mg/kg/injection, schedule: Q01DX009 (ip), vehicle: saline with Tween-80.
The mark [3] stands for this setting: dose: 240.0 mg/kg/injection, schedule: Q01DX005 (ip), vehicle: saline.
[4] abbreviates: dose: 50.0 mg/kg/injection, schedule: Q01DX009 (ip), vehicle: saline.
Setting [5] is: dose: 100.0 mg/kg/injection, schedule: Q01DX009 (ip), vehicle: saline.
Setting [6] is: dose: 200.0 mg/kg/injection, schedule: Q01DX009 (ip), vehicle: saline.
[7] abbreviates: dose: 100.0 mg/kg/injection, schedule: Q01DX009 (ip), vehicle: water.
Setting [8] is: dose: 150.0 mg/kg/injection, schedule: Q01DX009 (ip), vehicle: water.
Setting [9] is: dose: 200.0 mg/kg/injection, schedule: Q01DX009 (ip), vehicle: water.
Where [10] appears, read: dose: 200.0 mg/kg/injection, schedule: Q01DX005 (ip), vehicle: saline with Tween-80.

With `CCOc1ccccc1N=Cc1c2ccccc2cc2ccccc12`, the survivor count is listed as 5 of 6 under setting [1] and 6 of 6 under setting [2].
For the compound `COc1ccc(/C=N/N2CN(C(C)C(=O)O)C(O)(CCl)N=C2N)cc1OC` (configuration not stated), under setting [3], the T/C is 126 % of control.
As to `COc1cc2c(cc1OC)NC(=O)C2`, the survivor count by setting is: (dose: 200.0 mg/kg/injection, schedule: Q04DX003 (ip), vehicle: saline with Tween-80) 5 of 6; (dose: 400.0 mg/kg/injection, schedule: Q04DX003 (ip), vehicle: saline with Tween-80) 1 of 6.
Regarding `C=CC[n+]1ccc(-c2cc[n+](CC=C)cc2)cc1`, the survivor count was 4 of 6 and 5 of 6 (dose: 25.0 mg/kg/injection, schedule: Q01DX009 (ip), vehicle: saline); 0 of 6 under setting [4]; 0 of 6 under setting [5]; 0 of 6 under setting [6].
`O=C(O)CC1C(=O)OC2C3COC(=O)c4cc(O)c(O)c(O)c4-c4c(cc(O)c(O)c4O)C(=O)OC2C(OC(=O)c2cc(O)c(O)c4c2C1C(O)C(=O)O4)C(OC(=O)c1cc(O)c(O)c(O)c1)O3` (configuration not stated): the survivor count is 5 of 6 under setting [5] and 1 of 6 under setting [6].
Regarding `CC(=O)SC12CCCN1C(=O)C1(SC(C)=O)CCCN1C2=O` (configuration not stated), the survivor count was 2 of 6 under setting [4]; 0 of 6 under setting [5]; 0 of 6 and 4 of 6 under setting [6].
Turning to `CNC(=O)ON(C(C)=O)C(=O)NC`, the T/C was 131 % of control (dose: 12.5 mg/kg/injection, schedule: Q01DX009 (ip), vehicle: saline with Tween-80); 114, 117 (2×), 126 % of control (dose: 12.5 mg/kg/injection, schedule: Q01DX009 (ip), vehicle: saline, evaluated on day 30); 137 % of control (dose: 12.5 mg/kg/injection, schedule: Q01DX009 (ip), vehicle: saline, evaluated on day 35); 127 and 128 % of control (dose: 20.0 mg/kg/injection, schedule: Q01DX009 (ip), vehicle: saline); 126 % of control (dose: 25.0 mg/kg/injection, schedule: Q01DX009 (ip), vehicle: saline with Tween-80); 124, 125 (2×), 130, 133 % of control (dose: 25.0 mg/kg/injection, schedule: Q01DX009 (ip), vehicle: saline, evaluated on day 30). Further, the T/C is, setting by setting: (dose: 25.0 mg/kg/injection, schedule: Q01DX009 (ip), vehicle: saline, evaluated on day 35) 141 % of control; (dose: 25.0 mg/kg/injection, schedule: Q01DX009 (ip), vehicle: water) 136 % of control; (dose: 40.0 mg/kg/injection, schedule: Q01DX009 (ip), vehicle: saline) 129 and 130 % of control; (dose: 50.0 mg/kg/injection, schedule: Q01DX005 (ip), vehicle: saline) 129 % of control; (dose: 50.0 mg/kg/injection, schedule: Q01DX009 (ip), vehicle: saline with Tween-80) 141 and 142 % of control; (dose: 50.0 mg/kg/injection, schedule: Q01DX009 (ip), vehicle: saline, evaluated on day 30) 126, 133, 135, 140, 146 % of control. Besides, the T/C runs as follows: (dose: 50.0 mg/kg/injection, schedule: Q01DX009 (ip), vehicle: saline, evaluated on day 35) 95 % of control; (dose: 50.0 mg/kg/injection, schedule: Q01DX009 (ip), vehicle: water) 145 % of control; (dose: 100.0 mg/kg/injection, schedule: Q01DX009 (oral), vehicle: saline) 134 % of control; under setting [8], 130 % of control; (dose: 200.0 mg/kg/injection, schedule: Q01DX005 (iv), vehicle: saline) 125 % of control [8 of 10 alive]; (dose: 200.0 mg/kg/injection, schedule: Q01DX009 (oral), vehicle: saline) 142 % of control [9 of 10 alive]. For the same compound, the survivor count is, setting by setting: (dose: 25.0 mg/kg/injection, schedule: Q03HX015 (ip), vehicle: saline) 4 of 10; (dose: 25.0 mg/kg/injection, schedule: Q03HX015 (ip), vehicle: water) 5 of 6; (dose: 50.0 mg/kg/injection, schedule: Q03HX015 (ip), vehicle: saline) 0 of 10; (dose: 50.0 mg/kg/injection, schedule: Q03HX015 (ip), vehicle: water) 0 of 6; (dose: 80.0 mg/kg/injection, schedule: Q01DX009 (ip), vehicle: saline) 1 of 6 and 4 of 6; (dose: 100.0 mg/kg/injection, schedule: Q01DX005 (ip), vehicle: saline) 1 of 10 and 2 of 10. For the same compound, the survivor count is, setting by setting: under setting [1], 1 of 6 and 3 of 6; under setting [5], 0 of 6, 1 of 10, 2 of 6, 3 of 6, 5 of 6; under setting [7], 0 of 6; (dose: 100.0 mg/kg/injection, schedule: Q03HX015 (ip), vehicle: saline) 0 of 10; under setting [8], 0 of 6; (dose: 200.0 mg/kg/injection, schedule: Q01DX001 (ip), vehicle: saline) 2 of 10. For the same compound, the survivor count runs as follows: (dose: 200.0 mg/kg/injection, schedule: Q01DX005 (ip), vehicle: saline) 0 of 10 (2×); under setting [2], 0 of 6; under setting [6], 0 of 6; under setting [9], 0 of 6; (dose: 400.0 mg/kg/injection, schedule: Q01DX001 (ip), vehicle: saline) 0 of 10; (dose: 400.0 mg/kg/injection, schedule: Q01DX001 (iv), vehicle: saline) 0 of 10. Further, the survivor count (dose: 400.0 mg/kg/injection, schedule: Q01DX005 (ip), vehicle: saline) is 0 of 10 and the survivor count (dose: 400.0 mg/kg/injection, schedule: Q01DX005 (iv), vehicle: saline) is reported as 0 of 10.
As for `Nc1nn(-c2cccc(C(F)(F)F)c2)c2cccc[n+]12`, the survivor count is listed as 1 of 6 under setting [1]; 5 of 6 under setting [7]; 0 of 6 under setting [2]; 0 of 6 under setting [9]; 0 of 6 (dose: 400.0 mg/kg/injection, schedule: Q01DX009 (ip), vehicle: water).
`CCC1COC(CC)N1` (configuration not stated): the T/C is 128 % of control (dose: 100.0 mg/kg/injection, schedule: Q01DX005 (ip), vehicle: saline with Tween-80) and 128 % of control under setting [10]. The survivor count by setting is: under setting [10], 0 of 5; (dose: 400.0 mg/kg/injection, schedule: Q01DX005 (ip), vehicle: saline with Tween-80) 0 of 5.
Turning to `c1ccc2c(c1)nc1n2CC2(CS1)CSc1nc3ccccc3n1C2`, the survivor count under setting [2] is 6 of 6.
On to `NC1=NC(=O)N2CC12` (configuration not stated), for which the T/C runs as follows: under setting [4], 126 % of control; under setting [6], 128 % of control. The survivor count (dose: 400.0 mg/kg/injection, schedule: Q01DX009 (ip), vehicle: saline) is reported as 0 of 6.
With `O=S(=O)(O)c1ccccc1O`, the survivor count (dose: 100.0 mg/kg/injection, schedule: Q01DX001 (ip), vehicle: saline with Tween-80) is listed as 1 of 6; the survivor count (dose: 200.0 mg/kg/injection, schedule: Q01DX001 (ip), vehicle: saline with Tween-80) is 0 of 6; the survivor count (dose: 400.0 mg/kg/injection, schedule: Q01DX001 (ip), vehicle: saline with Tween-80) is 0 of 6.
Turning to `COc1ccc(OC)c(CC(C)N)c1` (configuration not stated), the survivor count under setting [3] is recorded as 0 of 6.
On to `Nc1cccc(SC2CC(=O)N(c3ccc4c(c3)OCO4)C2=O)c1` (configuration not stated), for which the survivor count (dose: 400.0 mg/kg/injection, schedule: Q04DX003 (ip), vehicle: Klucel (hydroxypropylcellulose) (HPC)) was 4 of 6.
Consider `CCOc1ccc2nc([NH-])sc2c1.CCOc1ccc2nc([NH-])sc2c1.CCOc1ccc2nc([NH-])sc2c1.CCOc1ccc2nc([NH-])sc2c1.[Cl][Rh][Cl]`, for which the survivor count was 3 of 6 (dose: 200.0 mg/kg/injection, schedule: Q01DX001 (ip), vehicle: DMSO) and 0 of 6 (dose: 400.0 mg/kg/injection, schedule: Q01DX001 (ip), vehicle: DMSO).
